# Measured data: PubChem BioAssay AID1259424 (University of Nebraska Medical Center, 2018)
# Test: 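Find knockdowns that reproduce the expression shifts seen after KSR1 loss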 (primary screen)
# System: human HCT116 colon cancer cells
# Reagent: siRNA pool against human genes, 50 nM
# Measurement: 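Six signature mRNAs by branched-DNA multiplex assay, scaled to two housekeeping genes and non-targeting median, log2; matched to mean KSR1 knockdown profile by Pearson correlation and euclidean distance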
# Direction: mean correlation with KSR1 profile and KSR1 correlation: higher = expression change more like KSR1 knockdown; mean distance from KSR1 profile: higher = expression change less like KSR1 knockdown
# Here is an unselected part of about 14,000 reagents. 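Higher correlation or smaller distance means closer resemblance to KSR1 loss; control wells, including KSR1 knockdowns, recur on many plates.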 Not given: the time to read-out.
Target gene,PubChem SID,mean correlation with KSR1 profile,mean distance from KSR1 profile,"KSR1 correlation, replicate 1","KSR1 correlation, replicate 2","KSR1 correlation, replicate 3"
CYTH2 (cytohesin 2),SID363995227,-0.268,2.25,-0.148,-0.242,-0.371
TRMT2A (tRNA methyltransferase 2A),SID364002506,-0.181,3.43,-0.196,-0.493,-0.235
AMDHD2 (amidohydrolase domain containing 2),SID363999739,0.346,3.09,0.0518,0.339,0.689
NSUN7 (NOP2/Sun RNA methyltransferase family member 7),SID364002969,0.716,2.35,0.85,0.972,0.0426
KCNMB1,SID363995147,-0.45,1.26,-0.626,-0.649,-0.0377
VAMP7 (vesicle associated membrane protein 7),SID363996532,-0.203,2.77,-0.0735,-0.286,-0.147
ESRP1 (epithelial splicing regulatory protein 1),SID364000452,0.136,2.2,-0.0837,0.223,0.181
WDR35 (WD repeat domain 35),SID364001824,0.0501,1.76,-0.0383,-0.00937,-0.016
GMNN (geminin DNA replication inhibitor),SID363999699,0.0884,2.18,-0.273,-0.0568,0.255
NIPAL2 (NIPA like domain containing 2),SID364003034,0.26,2.32,0.241,0.461,0.155
SERP1 (stress associated endoplasmic reticulum protein 1),SID363998860,0.32,1.88,0.257,0.149,-0.364
PPA1 (inorganic pyrophosphatase 1),SID364002026,-0.185,2.91,-0.311,-0.134,-0.236
SMG6 (SMG6 nonsense mediated mRNA decay factor),SID364000370,-0.418,1.88,-0.509,-0.241,-0.377
NHS (NHS actin remodeling regulator),SID364004981,0.31,1.21,0.554,0.568,0.0314
PLAG1 (PLAG1 zinc finger),SID363993823,-0.00365,3.05,0.0869,-0.106,0.208
PANX2 (pannexin 2),SID364004398,-0.307,2.42,-0.204,-0.366,-0.305
RALB (RAS like proto-oncogene B),SID363994037,0.759,1.06,0.696,0.692,0.594
"PFKL (phosphofructokinase, liver type)",SID363993794,0.366,2.38,0.43,0.34,0.338
FLT3 (fms related receptor tyrosine kinase 3),SID363995129,0.139,3.55,0.134,0.0819,-0.0757
GEMIN5 (gem nuclear organelle associated protein 5),SID363999514,-0.203,1.44,-0.00898,-0.498,-0.103
